pIC50: −log10 of the molar value. The structures given here were assigned with low confidence; some may be wrong.
Columns and labels:
ALK2 = ALK2 (Mus musculus, UniProt P37172); assay: Luciferase reporter gene assay for ALK2 activity (C2C12 BRE-Luc SMAD1/5/8 reporter, BMP6 agonist); conditions: read-out: ALK2 IC50, BMP6 50 ng/mL
TGFβ = assay: Luciferase reporter gene assay for TGFβ activity (HEK293T SBE-Luc SMAD2/3 reporter, TGFβ agonist); conditions: read-out: TGFβ IC50, TGFβ 5 ng/mL

The chains behind the UniProt entries cited, without tags or fusion partners. Residues count along the entry.
UniProt P37172, 21-509 limits assumed: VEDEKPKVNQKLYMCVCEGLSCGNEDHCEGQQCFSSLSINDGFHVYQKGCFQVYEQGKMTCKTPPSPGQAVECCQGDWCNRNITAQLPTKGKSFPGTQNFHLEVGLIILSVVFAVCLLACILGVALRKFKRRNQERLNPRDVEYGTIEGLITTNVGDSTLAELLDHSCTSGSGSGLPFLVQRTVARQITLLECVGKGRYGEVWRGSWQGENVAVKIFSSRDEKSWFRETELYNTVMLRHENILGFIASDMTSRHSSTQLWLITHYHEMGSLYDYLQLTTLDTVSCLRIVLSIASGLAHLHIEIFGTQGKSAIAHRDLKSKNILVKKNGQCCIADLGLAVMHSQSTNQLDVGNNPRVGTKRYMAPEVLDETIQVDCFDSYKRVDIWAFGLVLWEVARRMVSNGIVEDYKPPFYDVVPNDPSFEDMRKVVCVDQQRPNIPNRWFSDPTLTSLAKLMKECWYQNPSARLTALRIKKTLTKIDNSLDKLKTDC

Row | SMILES | pIC50 (ALK2) | pIC50 (TGFβ)
1 | COc1cc2c(-c3cnn4cc(N5CC6(CC(N(C)C)C6)C5)cnc34)ccnc2cc1F | 8.52 | 7.48
2 | COc1cc2c(-c3cnn4cc(N5CCN(C6CNC6)CC5)cnc34)ccnc2cc1F | 6.02 | 6.20
3 | COc1cc2c(-c3cnn4cc(N5C[C@H]6CNC[C@H]6C5)cnc34)ccnc2cc1F (relative stereo) | 8.22 | 6.96
4 | Cc1cc(-c2cnn3cc(N4CCC5(CC4)CN(C)C5)cnc23)c2ccccc2n1 | 7.32 | 7.74
5 | COc1cc2c(-c3cnc4cc(N5CC(N6CCN(C)CC6)C5)cnn34)ccnc2cc1F [Compound 335] | 7.32 | 6.36
6 | COc1cc2c(-c3cnn4cc(N5CC6(CC(N)C6)C5)cnc34)ccnc2cc1F | 7.96 | 7.17
7 | COc1cc2c(-c3cnn4cc(N5CC(N6CCS(=O)(=O)CC6)C5)cnc34)ccnc2cc1F | 7.82 | 7.00
8 | CN1CCN(C2CCN(c3cnc4c(-c5c[nH]c(=O)c6ccccc56)cnn4c3)CC2)CC1 | 7.51 | 7.06

— patent publication US20230000869A1, “NOVEL ALK2 INHIBITORS AND METHODS FOR INHIBITING BMP SIGNALING” (The Brigham and Women's Hospital, Inc., priority 2017, published 2023)
